Results: PubChem BioAssay AID1347075 (National Center for Advancing Translational Sciences (NCATS), 2019)
Among all 400,000 compounds or so, about 5,500 (1.4%) were called active. Inconclusive results, whose numbers are uncertain, are shown with a selection of clear calls. Calls come from the whole dose curve; as a rule, active = well fitted cell-killing curve with a large enough effect; inconclusive = small, poorly fitted or top-dose-only effect, or effect the other way; inactive = flat fitted curve, though single readings scatter. A potency beside an inconclusive call is a rough fit, not a confirmed value.

Assay: qHTS assay for MDR1-selective chemotherapeutics: Primary screen using the parental adenocarcinoma cell KB-3-1; note: nearly all actives have a fitted effect of over 60% in size
Settings: KB-3-1 viability, CellTiter-Glo ATP luminescence, 72 h; activity change, negative = cytotoxic: at 46.1 µM (top of the series)
Method in brief: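 Luminescent ATP read-out (CellTiter-Glo) measures survival of drug-naive KB-3-1 cells after 72 h compound exposure at 37 °C. Titration series was screened from lowest to highest concentration, with DMSO vehicle plates as background controls.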
% is set by controls: 0 for no effect and ±100 for the full control effect; potency is the fitted concentration of half-maximal effect.

Structure (SMILES) | activity change, negative = cytotoxic | Potency
Cc1ccc(OCCC(=O)OCC(=O)Nc2cc(S(=O)(=O)N(C)C)ccc2C)cc1 | inactive: 9.7% | –
C[C@@]12C(=O)Nc3ccc(F)cc3C(=O)N1[C@H]1c3cc(Br)ccc3OC[C@@H]1[C@@H]2c1ccccc1 | – | inconclusive: 18.4 µM [cytotoxic, partial curve, poor fit]
N#CCCn1cc(/C=N/O)c(-c2ccccc2)n1 | inactive: -15% | –
CCOC(=O)c1sc2nc(C3CC3)cc(-c3ccc(OC)cc3)c2c1N | inactive: 2.76% | –
COc1ccc(CCNC(=O)C2CCC(C(C)(C)C)CC2)cc1OC (configuration not stated) | inactive: 5.38% | –
Cc1ccc(C(=O)Nc2cccc(C(F)(F)F)c2)cc1Nc1ncnc2nc[nH]c12 | – | inconclusive: 23.1 µM [cytotoxic, partial curve, poor fit]
Cc1ccc(NC(=O)COC(=O)C2(c3ccc(Cl)cc3)CCCC2)cc1 | – | inconclusive: 29.1 µM [cytotoxic, single point]
Cc1ccccc1N(CC(=O)NCCSC1CCCCC1)S(=O)(=O)c1ccccc1 | – | inconclusive: 20.6 µM [cytotoxic, single point]
O=C(Nc1ccc(C(=O)N2CCOCC2)cc1)c1ccc([N+](=O)[O-])cc1 | – | inconclusive: 29.1 µM [rising, single point]
CC(C)(C)c1ccc(NC(=O)Nc2ccc(F)cc2)cc1 | – | inconclusive: 20.6 µM [cytotoxic, single point]
COc1cccc(NC(=O)c2ccc3nc(Cc4ccccc4)oc3c2)c1 | – | inconclusive: 16.4 µM [cytotoxic, single point]
Cc1ccc(NC(=O)CN2CCc3cc4c(cc3C2)OCCCO4)cc1C | – | inconclusive: 29.1 µM [cytotoxic, single point]
O=C(CSc1oc(-c2ccccc2)nc1S(=O)(=O)c1ccccc1)c1ccccc1 | inactive: 7.23% | –
Cc1ccc(N2C(=S)NC3c4cc(Cl)ccc4OC2(C)C3C(=O)N(C)C)cc1 (configuration not stated) | – | inconclusive: 29.1 µM [cytotoxic, single point]
Oc1ccc(-c2nc(=S)[nH][nH]2)cc1 | inactive: -2.43% | –
O=C(NC1CCN(Cc2ccccc2)CC1)c1cccc(NS(=O)(=O)c2ccc(Br)cc2)c1 | – | inconclusive: 4.61 µM [cytotoxic, partial curve]
Cc1ccc(S(=O)(=O)Nc2ccccc2-c2ccccc2)cc1 | – | active: 3.26 µM
N[C@H]1CONC1=O | inactive: 0% | –
Cc1nc(NC(=O)c2ccco2)sc1-c1csc(Nc2ccc(Cl)cc2)n1 | – | inconclusive: 29.1 µM [cytotoxic, single point]
COc1ccc(NS(=O)(=O)c2cccc(C(=O)N(C)Cc3cccs3)c2)cc1 | – | inconclusive: 18.4 µM [cytotoxic, partial curve, poor fit]
CCCCC[C@@H](C)N1C[C@@H](COCc2ccccc2)Oc2cc(N3CC[C@H](N(C)C)C3)ccc2S1(=O)=O | – | inconclusive: 16.4 µM [cytotoxic, single point]
CCc1ccc(S(=O)(=O)NCCc2cn3ccc(C)cc3n2)s1 | inconclusive: -41.8% [cytotoxic] | –
O=C(CN1CCN(Cc2ccccc2Cl)CC1)N/N=C/C=C/c1ccccc1[N+](=O)[O-] | – | inconclusive: 29.1 µM [cytotoxic, single point]
N#C/C(=N\Nc1ccc(S(=O)(=O)N2CCc3ccccc32)cc1)C(N)=S | – | inconclusive: 18.4 µM [cytotoxic, single point]

Structure (SMILES) | activity change, negative = cytotoxic | Potency
Clc1c(Cl)c(Cl)c2n[nH]nc2c1Cl | – | inconclusive: 29.1 µM [cytotoxic, single point]
COc1cc2c(cc1OC)C(C(C(=O)N(CCc1ccc(OC)c(OC)c1OC)CCc1ccc(OC)c(OC)c1OC)c1ccccc1)=NCC2 (configuration not stated) | – | inconclusive: 29.1 µM [cytotoxic, single point]
CCOc1ccc(C(=O)OCC(=O)N2CCCC2)cc1OCC | inactive: -4.2% | –
Cc1ccc(Nc2nc(N)nc(CCl)n2)cc1 | – | inconclusive: 29.1 µM [cytotoxic, single point]
Cc1c(Cl)cccc1N=Cc1ccc([N+](=O)[O-])s1 | inactive: -14.6% | –
Fc1ccccc1CCNc1c2c(nc3ncnn13)CCCC2 | – | inconclusive: 4.61 µM [cytotoxic, partial curve]
CCc1cc(C(=O)NCC(c2cccs2)N2CCOCC2)sc1C (configuration not stated) | inactive: 0% | –
Cc1nn(CCC(=O)NNC(=S)Nc2cccc(Cl)c2)c(C)c1[N+](=O)[O-] | inactive: 6.22% | –
CCCNC(=O)C1(C)CCCN(Cc2ccc(C(F)(F)F)cc2)C1 (configuration not stated) | inactive: 0% | –
O=C(COc1cc2oc(=O)cc(-c3ccccc3)c2cc1Cl)NCc1ccccn1 | inconclusive: 0% | –
CCOc1ccc(NS(=O)(=O)c2ccc(C(=O)NCC3(N4CCCCC4)CCCCC3)cc2)cc1 | – | inconclusive: 10.3 µM [cytotoxic, partial curve]
CN(c1ccccc1)c1nc(N)c(C#N)c(CC#N)c1C#N | – | active: 14.6 µM
C=CCN(c1ccccc1OC)S(=O)(=O)c1cccc(C(=O)OCC(=O)c2c(N)n(C)c(=O)n(C)c2=O)c1 | – | inconclusive: 16.4 µM [cytotoxic, single point]
CC(C)Cc1ccc(C(C)C(=O)Nc2ccccc2O)cc1 (configuration not stated) | – | active: 20.6 µM
COc1ccc(NS(=O)(=O)c2cc(NC(=O)c3ccc(=O)[nH]c3)ccc2N2CCCC2)cc1 | – | active: 3.66 µM
O=C1CSC(=S)N1Cc1ccccc1 | – | inconclusive: 23.1 µM [cytotoxic, single point]
COc1cccc(C2CC(c3ccccc3Cl)Nc3ncnn32)c1 (configuration not stated) | – | inconclusive: 29.1 µM [cytotoxic, single point]
CC1Cc2cc(/C(O)=C3/C(=O)C(=O)N(CC4CCCO4)C3c3ccco3)ccc2O1 (configuration not stated) | inactive: -0.581% | –
O=C(CSc1ccc(Cl)cc1)Nc1ccc(N2CCN(C(=O)c3ccc(Cl)cc3)CC2)cc1 | – | inconclusive: 25.9 µM [cytotoxic, single point]
COc1ccc(S(=O)(=O)n2ccc(C(C)Oc3ccc(-c4ccccc4)c(F)c3)n2)cc1 (configuration not stated) | – | inconclusive: 29.1 µM [cytotoxic, single point]
Cc1ccc(NC(=O)/C=C/c2cccc(C(F)(F)F)c2)cc1 | inactive: 4.96% | –
CC(C)N(C(=O)CSc1nc(Cc2ccccc2)nc2ccccc12)C(C)C | – | inconclusive: 18.4 µM [cytotoxic, single point]
Cc1ccc(C(=O)COC(=O)c2cccc(NC(=O)c3ccc([N+](=O)[O-])cc3[N+](=O)[O-])c2)cc1 | – | inconclusive: 29.1 µM [cytotoxic, single point]
Cc1oc2ccccc2c1CC(=O)NCCCN(C)C | inconclusive: -0.0599% | –

Structural class, the compounds so far containing an NH in an aromatic ring (4)
Structure (SMILES) | activity change, negative = cytotoxic | Potency
Cc1ccc(C(=O)Nc2cccc(C(F)(F)F)c2)cc1Nc1ncnc2nc[nH]c12 | – | inconclusive: 23.1 µM [cytotoxic, partial curve, poor fit]
Oc1ccc(-c2nc(=S)[nH][nH]2)cc1 | inactive: -2.43% | –
Clc1c(Cl)c(Cl)c2n[nH]nc2c1Cl | – | inconclusive: 29.1 µM [cytotoxic, single point]
COc1ccc(NS(=O)(=O)c2cc(NC(=O)c3ccc(=O)[nH]c3)ccc2N2CCCC2)cc1 | – | active: 3.66 µM

Later entries

Structure (SMILES) | activity change, negative = cytotoxic | Potency
CCN1C(=O)c2cccc3c(S(=O)(=O)NCCCN4CCOCC4)ccc1c23 | inactive: 3.39% | –
CCOc1ccc(CCNC(c2nnc(-c3ccccc3)o2)c2ccccc2Cl)cc1OCC (configuration not stated) | – | inconclusive: 16.4 µM [cytotoxic, single point]
CC(=O)Nc1ccc2cc3ccc(NC(C)=O)cc3nc2c1 | – | active: 23.1 µM
Cc1ccc(Cn2c(NS(=O)(=O)c3ccccc3)nc3ccccc32)cc1 | inactive: -0.359% | –
CCOC(=O)[C@]12CCCC=C1N(Cc1cccc3ccccc13)C(=O)[C@H](CC(=O)N1CCCCC1)C2 | – | inconclusive: 18.4 µM [cytotoxic, single point]
Cc1cccc2sc(N(CCN(C)C)C(=O)c3ccc4ccccc4c3)nc12 | inactive: 0.0208% | –
CCOC(=O)c1ccc(NC(=O)COc2ccccc2CNC2CCCC2)cc1 | – | inconclusive: 29.1 µM [cytotoxic, single point]
COc1ccc(C(=O)NCC(c2cccs2)S(=O)(=O)c2cccs2)cc1 (configuration not stated) | inactive: -12.2% | –
COc1cc(/C=N\NC(=O)CC#N)ccc1OC/C=C/c1ccccc1 | inactive: -0.675% | –
Cc1ccc(NC(=O)CN(C)C(=O)c2ccc(Cl)nc2)cc1 | – | inconclusive: 18.4 µM [cytotoxic, single point]
Cc1ccc(-n2nnnc2CNC(=O)c2ccc([N+](=O)[O-])o2)cc1C | – | active: 14.6 µM
Cc1cc(C)c(C)c(S(=O)(=O)N2CCN(c3ccc(O)cc3)CC2)c1C | inactive: -11.3% | –
Cn1c(C(=O)Nc2cccc(Cl)c2)cc2c(=O)n(C)c3ccccc3c21 | inactive: -1.49% | –
C[C@H](CO)N1C[C@H](C)[C@@H](CN(C)CC2CCCCC2)Oc2ccc(NC(=O)Cn3cnnn3)cc2C1=O | – | inconclusive: 0.82 µM [rising, full curve]
CCOc1ccc(NC(=O)C[n+]2ccc(N(C)C)cc2)cc1 | – | active: 10.3 µM
CCC(C(=O)NC1CCCC1)n1c(C2CCCC2)nc2ccccc21 (configuration not stated) | inactive: 5.3% | –
COc1ccc(NC(=O)C2CCCN(c3nc(C)cc(C)n3)C2)cc1 (configuration not stated) | inactive: 0% | –
CCN(CC)S(=O)(=O)c1ccc(C(=O)Nc2nnc(-c3ccco3)o2)cc1 | – | inconclusive: 18.4 µM [cytotoxic, single point]
Cn1c(Cn2c(=O)sc3ccccc32)nnc1SCc1ccc(F)cc1 | – | inconclusive: 29.1 µM [cytotoxic, single point]
COc1ccc(C(=O)Cn2c(C)nc([N+](=O)[O-])c2Br)cc1 | – | inconclusive: 29.1 µM [cytotoxic, single point]
CCCc1ccc2oc(C(=O)N(C)Cc3cnccn3)c(C)c2c1 | – | inconclusive: 20.6 µM [cytotoxic, partial curve, poor fit]
CCOCCc1nnc(NC(=O)CSc2ccccc2)s1 | – | inconclusive: 29.1 µM [rising, single point]
CC(=O)Nc1cccc(-c2csc(C(C)(O)c3cccc(F)c3)n2)c1 (configuration not stated) | inactive: -0.373% | –
COc1ccc(F)cc1S(=O)(=O)N1CCCC(C)C1 (configuration not stated) | – | inconclusive: 29.1 µM [rising, single point]
